# Where “and” joins values, the source holds several entries; their conditions need not be identical. Equal values may be shown once. This is one part of the list. These are further read-outs of the screen, such as a control signal, another cell line or another target. No call is given for them. Compounds called inactive in the main read-out are mostly missing here. Words in brackets tell the shape of the fitted curve; partial curves, single points and poor fits give uncertain potencies.
# Assay: qHTS Assay for Lipid Storage Modulators in Drosophila S3 Cells;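 for cell number change: cells counted by Cell Tracker Red CMTPX staining in the red channel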
# Conditions: BODIPY lipid droplet fluorescence, 18-24 h; for cell number change: measured here: cell count max response, cells fed with added oleic acid
# How it was run: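 Drosophila S3 cells got compounds at several concentrations plus oleic acid (400 uM solution). Laser-scanning cytometry with 488 nm excitation read lipid droplets at 500-530 nm and cells at 575-640 nm. Percent activity was relative to 20 uM Triacsin C.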
# [1] = measured here: cell number channel AC50, cells fed with added oleic acid
# [2] = measured here: lipid fluorescence (Fed channel) AC50, cells fed with added oleic acid
smiles,measurement,setting,value
CCc1cc2c(nc1CC)CCN(CC/C(C)=N/O[C@@H](C)c1cc(-c3c(C)cc(C)cc3C)no1)C2,cell number change,,-47.5%
same,AC50,[1],"23.1 µM [falling, single point]"
same,AC50,[2],"14.6 µM [falling, single point]"
O=C1C(Cl)=C(N2CCCCCC2)C(=O)N1c1ccccc1Cl,cell number change,,-22.2%
CC(=O)Nc1nc(C)c(-c2csc(Nc3ccccn3)n2)s1,cell number change,,-12.9% and -20%
same,AC50,[1],"1.46 µM [falling, partial curve, poor fit]"
same,AC50,[2],"11.6 µM [falling, single point]"
CCCCn1c(N)c(N(CCOC)C(=O)Cn2c(=O)oc3ccccc32)c(=O)[nH]c1=O,cell number change,,-22.9%
O=S(=O)(c1ccc2c(c1)OCCO2)N1CCN(Cc2ccccc2)CC1,cell number change,,23.7%
same,AC50,[2],"0.651 µM [falling, single point]"
Cc1cc(C(=O)COC(=O)c2cccc(O)c2)c(C)n1C1CC1,cell number change,,-17.4%
O=C1c2ccccc2C(=O)N1CCCc1nc2ccccc2c(=O)n1-c1cccnc1,cell number change,,-21.6%
Nn1c(Cc2cccc3ccccc23)nnc1SCc1ccccc1Cl,AC50,[1],"0.0116 µM [rising, full curve, poor fit]"
CCOC(=O)N1CCN(C(=O)C(=O)Nc2sc3c(c2C(N)=O)CC(C)(C)OC3)CC1,cell number change,,3.3%
same,AC50,[2],"29.1 µM [rising, single point]"
O=C(/C=C/c1cccc([N+](=O)[O-])c1)NCc1ccc2c(c1)OCO2,cell number change,,22.5%
same,AC50,[2],"1.64 µM [rising, partial curve]"
COc1ccc(OCCCC(=O)OCC(=O)NNC(=O)c2ccc([N+](=O)[O-])cc2)cc1,AC50,[2],"4.61 µM [falling, single point]"
COc1cc2cc(C)nc(Cc3cccc4ccccc34)c2cc1OC,AC50,[1],"0.231 µM [rising, partial curve]"
same,AC50,[2],"0.116 µM [rising, full curve, poor fit]"
COc1ccccc1CCNC(=O)c1nc(-c2cccs2)no1,AC50,[1],"0.00461 µM [falling, full curve, poor fit]"
COc1ccc(S(=O)(=O)N2CCCCC2)cc1NC(=O)CN(C)C1CCCCC1,cell number change,,-29%
same,AC50,[1],"0.164 µM [falling, full curve, poor fit]"
CCCCNC(=O)C1CCC(CNS(=O)(=O)c2c(C)cc(C)cc2C)CC1 (configuration not stated),cell number change,,95.7%
same,AC50,[1],"29.1 µM [rising, single point]"
COc1ccc(C(=O)Nc2cccc(NC(=O)c3cccs3)c2)cc1OC,cell number change,,-1.92%
same,AC50,[1],"0.0366 µM [rising, single point]"
same,AC50,[2],"29.1 µM [falling, single point]"
COc1ccc(/C=C/C(=O)c2ccc([N+](=O)[O-])o2)cc1OC,cell number change,,-60.2%
same,AC50,[1],"20.6 µM [falling, partial curve]"
same,AC50,[2],"6.51 µM [falling, partial curve]"
Cc1ccnc(NC(=O)CCNS(=O)(=O)c2ccc(C)c(C)c2)c1,cell number change,,35.2%
same,AC50,[1],"4.61 µM [rising, full curve, poor fit]"
CN(CC(=O)N1CCOCC1)S(=O)(=O)c1cc(Cl)ccc1Cl,cell number change,,3.81%
same,AC50,[2],"6.51 µM [rising, single point]"
CN1CCN(c2ccc(Cl)cc2NC(=O)CC2OC(=O)c3ccccc32)CC1 (configuration not stated),cell number change,,-4.41%
CC(C)C(=O)Nc1ccc(Nc2ccccc2)cc1,cell number change,,-18.5%
same,AC50,[1],"0.651 µM [falling, full curve]"
same,AC50,[2],"0.731 µM [falling, full curve]"
Cc1onc(-c2ccccc2)c1C(=O)N/N=C/c1cn(C)c2ccccc12,cell number change,,-15%
same,AC50,[1],"0.116 µM [falling, partial curve, poor fit]"
O=c1c2c(-c3ccccc3)csc2ncn1/N=C/c1ccc(O)c([N+](=O)[O-])c1,cell number change,,-1.52%
same,AC50,[2],"0.13 µM [falling, partial curve, poor fit]"
CCC(C)NC(=O)COC(=O)c1cccnc1Nc1ccccc1F (configuration not stated),cell number change,,-39%
same,AC50,[1],"0.231 µM [falling, full curve, poor fit]"
same,AC50,[2],"1.16 µM [rising, full curve]"
O=C(NCc1ccncc1)C(=O)NCC1OCCCN1S(=O)(=O)c1cc(F)ccc1F (configuration not stated),cell number change,,16.1%
Cc1ccc(NC(=O)COC(=O)C2COc3ccccc3O2)cc1 (configuration not stated),cell number change,,13.4%
same,AC50,[2],"6.51 µM [rising, single point]"
COc1ccc(OC)c(C(=O)/C=C/c2cccnc2)c1,cell number change,,-3.75%
same,AC50,[2],"2.31 µM [falling, partial curve, poor fit]"
COc1ccc(C(=O)NCC(=O)OCC(=O)NC(=O)NC2CCCCC2)cc1OC,cell number change,,7.64%
same,AC50,[2],"7.31 µM [falling, partial curve]"
CCOC(=O)c1oc2ccccc2c1NC(=O)c1ccc(S(=O)(=O)N(C)C)cc1,cell number change,,9.2%
COc1cc(NC(=O)C2C3CCC(O3)C2C(=O)O)cc(OC)c1 (configuration not stated),cell number change,,7.02%
same,AC50,[2],"6.51 µM [rising, single point]"
CCN(CC)c1ccc(S(=O)(=O)N2CCCCC2)cc1NC(=O)C1CCC1,cell number change,,-4.36%
O=C(Nc1ccc2nn(-c3ccccc3)nc2c1)c1ccc2c(c1)OCO2,AC50,[1],"0.517 µM [rising, partial curve, poor fit]"
same,AC50,[2],"0.103 µM [rising, full curve, poor fit]"
CN(CC(=O)Nc1cc(S(=O)(=O)N2CCCC2)ccc1Cl)Cc1ccc2c(c1)OCO2,cell number change,,-13.2%
CCCCNC(=O)c1sc(=S)n2c1[nH]c(=O)c1ccc(C(=O)NCCc3ccc(OC)c(OC)c3)cc12,cell number change,,-29.8%
same,AC50,[1],"4.11 µM [falling, full curve, poor fit]"
CN(CC(=O)O)Cc1nc2ccccc2[nH]1,cell number change,,-16.4%
CNCC(O)c1ccc(O)c(O)c1 (configuration not stated),cell number change,,21.8%
same,AC50,[2],"32.6 µM [rising, single point]"
CCCCNC(=O)CNC(=S)N(Cc1ccccc1F)C1CCCCC1,cell number change,,-31.9%
same,AC50,[1],"20.6 µM [falling, single point]"
same,AC50,[2],"23.1 µM [falling, single point]"
COc1ccc(S(=O)(=O)N2CCOCC2)cc1NC(=O)c1cccs1,cell number change,,14.3%
same,AC50,[2],"14.6 µM [rising, partial curve]"
CCOc1ccc(OCC(=O)N2CCC3(CC2)CC(=O)c2ccccc2O3)cc1,cell number change,,-13.5%
same,AC50,[1],"2.31 µM [falling, single point]"

# Nothing new here: entries from further up.
smiles,measurement,setting,value
CN(CC(=O)Nc1cc(S(=O)(=O)N2CCCC2)ccc1Cl)Cc1ccc2c(c1)OCO2,cell number change,,-13.2%
CCCCNC(=O)c1sc(=S)n2c1[nH]c(=O)c1ccc(C(=O)NCCc3ccc(OC)c(OC)c3)cc12,cell number change,,-29.8%

# — PubChem BioAssay AID2685 (National Center for Advancing Translational Sciences (NCATS), 2010)
